Experimental data published in paper PMC10933267.

Protein sequences, listed by entry. Tags and fused reporters are not part of them.
UniProt O43186: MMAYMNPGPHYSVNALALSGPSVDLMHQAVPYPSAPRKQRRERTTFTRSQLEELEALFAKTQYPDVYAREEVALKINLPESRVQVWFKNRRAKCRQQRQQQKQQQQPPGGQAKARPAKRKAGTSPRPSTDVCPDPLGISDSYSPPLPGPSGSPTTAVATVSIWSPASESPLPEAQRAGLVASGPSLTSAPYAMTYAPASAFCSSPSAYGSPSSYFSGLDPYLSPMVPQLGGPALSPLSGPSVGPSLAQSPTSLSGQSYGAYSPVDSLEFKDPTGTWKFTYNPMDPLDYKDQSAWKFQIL
UniProt Q92793: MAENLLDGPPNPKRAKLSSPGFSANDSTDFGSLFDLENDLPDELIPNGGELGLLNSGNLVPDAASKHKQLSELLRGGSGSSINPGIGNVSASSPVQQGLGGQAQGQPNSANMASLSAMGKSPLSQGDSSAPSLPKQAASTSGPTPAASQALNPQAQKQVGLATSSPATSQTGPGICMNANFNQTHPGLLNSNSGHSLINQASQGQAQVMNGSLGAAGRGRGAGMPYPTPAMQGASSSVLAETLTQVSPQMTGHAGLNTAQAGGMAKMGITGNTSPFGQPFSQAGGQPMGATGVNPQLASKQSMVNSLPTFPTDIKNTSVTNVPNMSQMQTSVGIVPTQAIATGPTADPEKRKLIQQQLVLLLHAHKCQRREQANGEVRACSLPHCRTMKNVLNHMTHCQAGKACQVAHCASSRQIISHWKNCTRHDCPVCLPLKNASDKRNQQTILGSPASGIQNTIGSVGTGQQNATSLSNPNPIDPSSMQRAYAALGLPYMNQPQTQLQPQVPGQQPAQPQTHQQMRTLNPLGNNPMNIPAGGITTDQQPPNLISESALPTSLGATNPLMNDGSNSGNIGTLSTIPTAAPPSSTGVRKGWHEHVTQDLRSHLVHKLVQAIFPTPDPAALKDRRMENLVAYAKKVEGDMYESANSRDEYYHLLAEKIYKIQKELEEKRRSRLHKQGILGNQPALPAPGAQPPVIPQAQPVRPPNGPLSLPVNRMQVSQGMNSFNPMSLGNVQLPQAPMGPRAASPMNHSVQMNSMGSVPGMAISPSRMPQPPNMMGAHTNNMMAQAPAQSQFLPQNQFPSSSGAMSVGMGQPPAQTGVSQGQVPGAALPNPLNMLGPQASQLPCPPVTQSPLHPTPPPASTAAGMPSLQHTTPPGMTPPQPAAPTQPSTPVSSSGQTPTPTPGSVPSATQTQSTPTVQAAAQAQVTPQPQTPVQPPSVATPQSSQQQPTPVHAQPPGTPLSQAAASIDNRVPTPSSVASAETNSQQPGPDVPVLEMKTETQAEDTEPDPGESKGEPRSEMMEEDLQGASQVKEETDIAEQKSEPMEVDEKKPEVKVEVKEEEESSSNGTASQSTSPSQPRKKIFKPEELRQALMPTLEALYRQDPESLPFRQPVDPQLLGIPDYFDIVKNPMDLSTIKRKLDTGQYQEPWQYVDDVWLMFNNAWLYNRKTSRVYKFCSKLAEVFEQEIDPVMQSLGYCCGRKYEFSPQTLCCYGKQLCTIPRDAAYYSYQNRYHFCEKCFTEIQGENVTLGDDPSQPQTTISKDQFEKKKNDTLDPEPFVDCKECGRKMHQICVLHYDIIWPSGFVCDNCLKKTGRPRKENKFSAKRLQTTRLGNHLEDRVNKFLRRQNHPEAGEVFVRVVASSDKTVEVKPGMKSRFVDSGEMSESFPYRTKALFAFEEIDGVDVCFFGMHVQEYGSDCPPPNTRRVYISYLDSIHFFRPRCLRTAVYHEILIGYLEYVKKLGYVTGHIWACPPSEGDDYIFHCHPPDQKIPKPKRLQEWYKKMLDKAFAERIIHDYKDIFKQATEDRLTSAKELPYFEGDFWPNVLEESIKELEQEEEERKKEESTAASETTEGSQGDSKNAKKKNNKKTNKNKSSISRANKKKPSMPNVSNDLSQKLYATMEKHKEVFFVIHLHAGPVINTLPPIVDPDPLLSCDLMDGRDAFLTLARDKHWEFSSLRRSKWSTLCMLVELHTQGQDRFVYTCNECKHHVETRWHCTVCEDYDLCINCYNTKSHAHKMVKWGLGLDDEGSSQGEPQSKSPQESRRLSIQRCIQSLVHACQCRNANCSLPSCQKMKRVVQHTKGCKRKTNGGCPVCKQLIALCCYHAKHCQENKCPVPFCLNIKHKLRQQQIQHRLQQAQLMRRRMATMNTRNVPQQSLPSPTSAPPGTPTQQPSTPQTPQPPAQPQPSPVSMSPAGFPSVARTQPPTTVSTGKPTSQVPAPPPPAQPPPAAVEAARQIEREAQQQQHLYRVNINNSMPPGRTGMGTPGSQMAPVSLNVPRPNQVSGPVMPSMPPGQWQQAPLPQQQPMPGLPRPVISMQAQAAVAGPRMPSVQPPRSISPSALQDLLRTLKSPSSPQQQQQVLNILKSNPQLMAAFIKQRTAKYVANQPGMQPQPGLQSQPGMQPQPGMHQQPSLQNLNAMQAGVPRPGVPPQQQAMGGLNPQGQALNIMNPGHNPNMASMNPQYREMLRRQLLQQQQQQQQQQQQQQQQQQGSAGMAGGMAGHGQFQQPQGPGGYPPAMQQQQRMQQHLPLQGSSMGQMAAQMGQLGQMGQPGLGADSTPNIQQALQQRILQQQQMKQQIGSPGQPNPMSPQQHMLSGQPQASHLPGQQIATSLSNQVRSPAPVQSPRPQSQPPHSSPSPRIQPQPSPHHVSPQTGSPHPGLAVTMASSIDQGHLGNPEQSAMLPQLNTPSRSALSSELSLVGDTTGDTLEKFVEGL
UniProt Q15596: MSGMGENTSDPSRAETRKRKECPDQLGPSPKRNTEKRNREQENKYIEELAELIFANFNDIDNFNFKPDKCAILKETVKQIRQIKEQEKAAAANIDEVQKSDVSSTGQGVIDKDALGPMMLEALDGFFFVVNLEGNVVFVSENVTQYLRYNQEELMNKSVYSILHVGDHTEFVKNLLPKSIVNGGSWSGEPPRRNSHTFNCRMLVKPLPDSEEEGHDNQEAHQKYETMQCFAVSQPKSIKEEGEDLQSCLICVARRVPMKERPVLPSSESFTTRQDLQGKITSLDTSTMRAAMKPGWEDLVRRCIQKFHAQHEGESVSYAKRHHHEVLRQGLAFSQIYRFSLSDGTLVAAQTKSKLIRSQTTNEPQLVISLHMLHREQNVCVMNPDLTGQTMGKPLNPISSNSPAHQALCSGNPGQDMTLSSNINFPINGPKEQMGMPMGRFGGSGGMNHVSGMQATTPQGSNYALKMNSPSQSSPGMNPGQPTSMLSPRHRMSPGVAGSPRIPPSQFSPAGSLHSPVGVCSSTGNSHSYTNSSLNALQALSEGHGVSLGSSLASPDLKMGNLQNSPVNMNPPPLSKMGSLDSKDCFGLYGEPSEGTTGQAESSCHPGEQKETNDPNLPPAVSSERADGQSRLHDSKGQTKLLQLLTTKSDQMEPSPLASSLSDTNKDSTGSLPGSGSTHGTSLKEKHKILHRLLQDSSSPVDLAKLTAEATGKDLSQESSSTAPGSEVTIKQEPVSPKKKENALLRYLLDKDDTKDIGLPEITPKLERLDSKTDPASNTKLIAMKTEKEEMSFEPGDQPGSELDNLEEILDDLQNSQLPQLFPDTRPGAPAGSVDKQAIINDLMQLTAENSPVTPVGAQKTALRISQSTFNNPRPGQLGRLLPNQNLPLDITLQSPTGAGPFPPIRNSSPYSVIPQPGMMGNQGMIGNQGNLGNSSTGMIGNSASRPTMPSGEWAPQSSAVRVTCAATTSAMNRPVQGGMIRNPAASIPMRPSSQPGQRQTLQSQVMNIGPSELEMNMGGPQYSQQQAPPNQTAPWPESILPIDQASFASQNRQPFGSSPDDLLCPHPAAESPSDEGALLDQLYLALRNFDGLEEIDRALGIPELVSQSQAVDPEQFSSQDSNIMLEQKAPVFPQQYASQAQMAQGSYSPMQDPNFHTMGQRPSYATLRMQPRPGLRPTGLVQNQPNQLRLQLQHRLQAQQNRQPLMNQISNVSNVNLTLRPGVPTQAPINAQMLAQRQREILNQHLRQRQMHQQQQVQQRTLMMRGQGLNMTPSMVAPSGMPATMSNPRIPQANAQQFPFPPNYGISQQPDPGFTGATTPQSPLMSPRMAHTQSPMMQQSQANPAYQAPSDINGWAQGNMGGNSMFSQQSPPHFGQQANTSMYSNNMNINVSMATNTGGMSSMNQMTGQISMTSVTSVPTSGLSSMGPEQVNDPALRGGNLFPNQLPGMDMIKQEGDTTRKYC
UniProt Q96RN5: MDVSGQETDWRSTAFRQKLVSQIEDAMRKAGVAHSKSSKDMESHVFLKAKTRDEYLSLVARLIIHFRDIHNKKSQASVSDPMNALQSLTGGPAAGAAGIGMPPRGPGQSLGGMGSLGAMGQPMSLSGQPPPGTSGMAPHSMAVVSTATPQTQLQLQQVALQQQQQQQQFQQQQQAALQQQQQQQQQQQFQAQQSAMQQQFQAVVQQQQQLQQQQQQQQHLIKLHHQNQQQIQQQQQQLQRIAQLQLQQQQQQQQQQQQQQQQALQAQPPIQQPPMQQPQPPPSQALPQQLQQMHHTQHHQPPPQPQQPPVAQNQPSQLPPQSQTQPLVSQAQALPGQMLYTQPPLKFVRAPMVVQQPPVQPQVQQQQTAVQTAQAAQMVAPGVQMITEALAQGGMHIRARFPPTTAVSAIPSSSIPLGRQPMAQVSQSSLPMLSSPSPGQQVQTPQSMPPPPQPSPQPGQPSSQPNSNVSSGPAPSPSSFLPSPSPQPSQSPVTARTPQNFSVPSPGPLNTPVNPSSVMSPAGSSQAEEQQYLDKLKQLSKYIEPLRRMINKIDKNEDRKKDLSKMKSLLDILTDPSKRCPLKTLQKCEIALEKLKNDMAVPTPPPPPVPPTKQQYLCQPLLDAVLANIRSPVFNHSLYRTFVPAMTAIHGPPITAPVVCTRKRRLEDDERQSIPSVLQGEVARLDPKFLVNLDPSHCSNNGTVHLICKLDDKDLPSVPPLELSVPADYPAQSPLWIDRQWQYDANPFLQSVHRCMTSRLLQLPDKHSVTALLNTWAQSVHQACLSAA
UniProt Q15788: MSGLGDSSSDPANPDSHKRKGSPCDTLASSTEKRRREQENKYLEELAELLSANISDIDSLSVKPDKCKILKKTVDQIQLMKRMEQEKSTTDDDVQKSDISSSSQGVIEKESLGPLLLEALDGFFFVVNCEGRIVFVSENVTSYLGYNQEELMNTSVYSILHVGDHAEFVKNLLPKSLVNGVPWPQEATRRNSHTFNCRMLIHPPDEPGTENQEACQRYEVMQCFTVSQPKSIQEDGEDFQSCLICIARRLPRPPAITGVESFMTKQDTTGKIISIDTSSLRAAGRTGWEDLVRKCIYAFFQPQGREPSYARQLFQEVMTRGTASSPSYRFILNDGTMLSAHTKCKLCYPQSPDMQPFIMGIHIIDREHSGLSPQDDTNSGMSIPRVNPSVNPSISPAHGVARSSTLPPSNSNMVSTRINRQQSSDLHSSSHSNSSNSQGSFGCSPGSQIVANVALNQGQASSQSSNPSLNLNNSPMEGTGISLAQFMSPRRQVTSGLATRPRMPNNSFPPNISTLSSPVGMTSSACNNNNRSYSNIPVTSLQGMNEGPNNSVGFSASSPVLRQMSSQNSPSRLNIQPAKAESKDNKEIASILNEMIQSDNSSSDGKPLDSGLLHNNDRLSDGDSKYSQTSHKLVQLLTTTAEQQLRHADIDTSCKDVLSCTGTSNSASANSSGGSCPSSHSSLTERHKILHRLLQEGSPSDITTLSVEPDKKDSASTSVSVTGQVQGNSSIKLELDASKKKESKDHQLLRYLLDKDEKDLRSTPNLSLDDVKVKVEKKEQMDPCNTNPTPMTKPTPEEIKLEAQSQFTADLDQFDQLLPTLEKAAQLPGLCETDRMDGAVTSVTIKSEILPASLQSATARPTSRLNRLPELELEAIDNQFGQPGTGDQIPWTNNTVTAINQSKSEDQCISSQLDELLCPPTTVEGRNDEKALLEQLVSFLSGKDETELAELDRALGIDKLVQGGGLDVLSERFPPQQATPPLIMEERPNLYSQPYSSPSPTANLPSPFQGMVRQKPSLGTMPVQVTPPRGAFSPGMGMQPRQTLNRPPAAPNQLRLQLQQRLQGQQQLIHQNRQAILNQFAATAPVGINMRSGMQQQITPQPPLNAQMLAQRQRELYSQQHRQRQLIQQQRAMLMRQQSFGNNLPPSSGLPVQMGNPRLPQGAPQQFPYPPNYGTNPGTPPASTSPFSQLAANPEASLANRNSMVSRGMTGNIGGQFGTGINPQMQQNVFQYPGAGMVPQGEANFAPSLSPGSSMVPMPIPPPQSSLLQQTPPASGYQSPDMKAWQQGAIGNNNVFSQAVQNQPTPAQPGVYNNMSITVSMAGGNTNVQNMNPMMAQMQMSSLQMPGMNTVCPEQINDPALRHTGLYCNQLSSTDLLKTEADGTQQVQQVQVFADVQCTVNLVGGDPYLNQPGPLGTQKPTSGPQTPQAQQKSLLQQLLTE

What was measured:
Experiment in all cases: proximity labelling; BioID-MS: MAC-tagged bait (BirA) in stable Flp-In T-REx 293 cells, tetracycline and 50 µM biotin for 24 h; lysate with Benzonase, sonicated; Strep-Tactin beads; LC-MS; high-confidence interactions by SAINTexpress BFDR < 0.01 and a GFP BioID contaminant database
CRX (human) [1] = biological target: CRX (human) (UniProt O43186)
DPRX (human) = biological target: T1, DPRX (human) (UniProt A6NFQ7)
T1 sequence: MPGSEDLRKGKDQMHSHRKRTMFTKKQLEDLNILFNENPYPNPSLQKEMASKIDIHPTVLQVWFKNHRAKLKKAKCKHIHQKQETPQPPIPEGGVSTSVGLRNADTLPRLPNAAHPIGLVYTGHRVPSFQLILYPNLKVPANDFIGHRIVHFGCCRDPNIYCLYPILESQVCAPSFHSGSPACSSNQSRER

ARGFX (human) = biological target: T2, ARGFX (human) (UniProt A6NJG6)
T2 sequence: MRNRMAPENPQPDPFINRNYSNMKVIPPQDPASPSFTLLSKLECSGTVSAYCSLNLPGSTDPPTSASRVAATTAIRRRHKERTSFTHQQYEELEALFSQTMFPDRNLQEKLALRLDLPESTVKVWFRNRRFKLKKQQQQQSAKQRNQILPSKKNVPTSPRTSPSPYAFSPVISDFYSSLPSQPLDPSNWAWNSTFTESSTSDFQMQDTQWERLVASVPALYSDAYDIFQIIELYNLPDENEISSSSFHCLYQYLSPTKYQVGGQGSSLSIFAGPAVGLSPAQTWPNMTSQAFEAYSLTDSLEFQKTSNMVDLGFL

OTX2 (human) = OTX2 (human) (UniProt P32243)
TPRX2 (human) = biological target: T3, TPRX2 (human) (UniProt P0DV77)
T3 sequence: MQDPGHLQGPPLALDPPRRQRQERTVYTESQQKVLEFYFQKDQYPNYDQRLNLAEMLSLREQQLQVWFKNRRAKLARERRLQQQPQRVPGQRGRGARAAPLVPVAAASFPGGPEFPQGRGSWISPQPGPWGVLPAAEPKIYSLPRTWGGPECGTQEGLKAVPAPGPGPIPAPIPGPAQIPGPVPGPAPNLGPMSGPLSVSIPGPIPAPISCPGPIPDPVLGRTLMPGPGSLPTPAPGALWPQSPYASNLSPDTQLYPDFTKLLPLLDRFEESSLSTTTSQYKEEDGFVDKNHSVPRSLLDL

CRX (human) [2] = biological target: CRX (human) (UniProt O43186); remark: listed apart in the source
KLF3 (human) = KLF3 (human) (UniProt P57682)

For NCOA3 (from UniProt Q9Y6Q9 1-1424), the binding (CRX (human) [1]) was “binds”.

In the case of HRNR (from UniProt Q86YZ3 1-2850), the binding (DPRX (human)) is reported as “binds”.

With “CREB-binding protein (from UniProt Q92793 1-2442)” the binding (ARGFX (human)) was “binds”, the binding (CRX (human) [1]) was “binds” and the binding (DPRX (human)) was “no binding”. For the same molecule, the binding (OTX2 (human)) was “binds” and the binding (TPRX2 (human)) was “binds”.

NCOA2 (from UniProt Q15596 1-1464) was tested, and the binding (CRX (human) [1]) was “binds”.

In the case of MED15 (from UniProt Q96RN5 1-788), the binding (CRX (human) [1]) is reported as “binds”, the binding (DPRX (human)) is reported as “no binding” and the binding (TPRX2 (human)) is reported as “binds”.

For NCOA1 (from UniProt Q15788 1-1441), the binding (CRX (human) [1]) was “binds”.

With E2F6 (from UniProt O75461 1-281) the binding (CRX (human) [1]) was “binds”.

B1: NR2C1 (protein, UniProt P13056 1-603)
chain: MATIEEIAHQIIEQQMGEIVTEQQTGQKIQIVTALDHNTQGKQFILTNHDGSTPSKVILARQDSTPGKVFLTTPDAAGVNQLFFTTPDLSAQHLQLLTDNSPDQGPNKVFDLCVVCGDKASGRHYGAVTCEGCKGFFKRSIRKNLVYSCRGSKDCIINKHHRNRCQYCRLQRCIAFGMKQDSVQCERKPIEVSREKSSNCAASTEKIYIRKDLRSPLTATPTFVTDSESTRSTGLLDSGMFMNIHPSGVKTESAVLMTSDKAESCQGDLSTLANVVTSLANLGKTKDLSQNSNEMSMIESLSNDDTSLCEFQEMQTNGDVSRAFDTLAKALNPGESTACQSSVAGMEGSVHLITGDSSINYTEKEGPLLSDSHVAFRLTMPSPMPEYLNVHYIGESASRLLFLSMHWALSIPSFQALGQENSISLVKAYWNELFTLGLAQCWQVMNVATILATFVNCLHNSLQQDKMSTERRKLLMEHIFKLQEFCNSMVKLCIDGYEYAYLKAIVLFSPDHPSLENMEQIEKFQEKAYVEFQDYITKTYPDDTYRLSRLLLRLPALRLMNATITEELFFKGLIGNIRIDSVIPHILKMEPADYNSQIIGHSI
B1 was tested, and the binding (CRX (human) [2]) was “binds”.

B2: NR2C2 (protein, UniProt P49116 1-596)
chain: MTSPSPRIQIISTDSAVASPQRIQIVTDQQTGQKIQIVTAVDASGSPKQQFILTSPDGAGTGKVILASPETSSAKQLIFTTSDNLVPGRIQIVTDSASVERLLGKTDVQRPQVVEYCVVCGDKASGRHYGAVSCEGCKGFFKRSVRKNLTYSCRSNQDCIINKHHRNRCQFCRLKKCLEMGMKMESVQSERKPFDVQREKPSNCAASTEKIYIRKDLRSPLIATPTFVADKDGARQTGLLDPGMLVNIQQPLIREDGTVLLATDSKAETSQGALGTLANVVTSLANLSESLNNGDTSEIQPEDQSASEITRAFDTLAKALNTTDSSSSPSLADGIDTSGGGSIHVISRDQSTPIIEVEGPLLSDTHVTFKLTMPSPMPEYLNVHYICESASRLLFLSMHWARSIPAFQALGQDCNTSLVRACWNELFTLGLAQCAQVMSLSTILAAIVNHLQNSIQEDKLSGDRIKQVMEHIWKLQEFCNSMAKLDIDGYEYAYLKAIVLFSPDHPGLTSTSQIEKFQEKAQMELQDYVQKTYSEDTYRLARILVRLPALRLMSSNITEELFFTGLIGNVSIDSIIPYILKMETAEYNGQITGASL
With B2 the binding (CRX (human) [2]) was “binds”.

B3: ZNF423 (protein, UniProt Q2M1K9 1-1284)
chain: MHKKRVEEGEASDFSLAWDSSVTAAGGLEGEPECDQKTSRALEDRNSVTSQEERNEDDEDMEDESIYTCDHCQQDFESLADLTDHRAHRCPGDGDDDPQLSWVASSPSSKDVASPTQMIGDGCDLGLGEEEGGTGLPYPCQFCDKSFIRLSYLKRHEQIHSDKLPFKCTYCSRLFKHKRSRDRHIKLHTGDKKYHCHECEAAFSRSDHLKIHLKTHSSSKPFKCTVCKRGFSSTSSLQSHMQAHKKNKEHLAKSEKEAKKDDFMCDYCEDTFSQTEELEKHVLTRHPQLSEKADLQCIHCPEVFVDENTLLAHIHQAHANQKHKCPMCPEQFSSVEGVYCHLDSHRQPDSSNHSVSPDPVLGSVASMSSATPDSSASVERGSTPDSTLKPLRGQKKMRDDGQGWTKVVYSCPYCSKRDFNSLAVLEIHLKTIHADKPQQSHTCQICLDSMPTLYNLNEHVRKLHKNHAYPVMQFGNISAFHCNYCPEMFADINSLQEHIRVSHCGPNANPSDGNNAFFCNQCSMGFLTESSLTEHIQQAHCSVGSAKLESPVVQPTQSFMEVYSCPYCTNSPIFGSILKLTKHIKENHKNIPLAHSKKSKAEQSPVSSDVEVSSPKRQRLSASANSISNGEYPCNQCDLKFSNFESFQTHLKLHLELLLRKQACPQCKEDFDSQESLLQHLTVHYMTTSTHYVCESCDKQFSSVDDLQKHLLDMHTFVLYHCTLCQEVFDSKVSIQVHLAVKHSNEKKMYRCTACNWDFRKEADLQVHVKHSHLGNPAKAHKCIFCGETFSTEVELQCHITTHSKKYNCKFCSKAFHAIILLEKHLREKHCVFDAATENGTANGVPPMATKKAEPADLQGMLLKNPEAPNSHEASEDDVDASEPMYGCDICGAAYTMEVLLQNHRLRDHNIRPGEDDGSRKKAEFIKGSHKCNVCSRTFFSENGLREHLQTHRGPAKHYMCPICGERFPSLLTLTEHKVTHSKSLDTGTCRICKMPLQSEEEFIEHCQMHPDLRNSLTGFRCVVCMQTVTSTLELKIHGTFHMQKLAGSSAASSPNGQGLQKLYKCALCLKEFRSKQDLVKLDVNGLPYGLCAGCMARSANGQVGGLAPPEPADRPCAGLRCPECSVKFESAEDLESHMQVDHRDLTPETSGPRKGTQTSPVPRKKTYQCIKCQMTFENEREIQIHVANHMIEEGINHECKLCNQMFDSPAKLLCHLIEHSFEGMGGTFKCPVCFTVFVQANKLQQHIFAVHGQEDKIYDCSQCPQKFFFQTELQNHTMSQHAQ
B3 was tested, and the binding (KLF3 (human)) was “binds”.

B4: TFAP4 (protein, UniProt Q01664 1-338)
chain: MEYFMVPTQKVPSLQHFRKTEKEVIGGLCSLANIPLTPETQRDQERRIRREIANSNERRRMQSINAGFQSLKTLIPHTDGEKLSKAAILQQTAEYIFSLEQEKTRLLQQNTQLKRFIQELSGSSPKRRRAEDKDEGIGSPDIWEDEKAEDLRREMIELRQQLDKERSVRMMLEEQVRSLEAHMYPEKLKVIAQQVQLQQQQEQVRLLHQEKLEREQQQLRTQLLPPPAPTHHPTVIVPAPPPPPSHHINVVTMGPSSVINSVSTSRQNLDTIVQAIQHIEGTQEKQELEEEQRRAVIVKPVRSCPEAPTSDTASDSEASDSDAMDQSREEPSGDGELP
In the case of B4, the binding (CRX (human) [2]) is reported as “binds”.

B5: ZZZ3 (protein, UniProt Q8IYH5 1-903)
chain: MAASRSTRVTRSTVGLNGLDESFCGRTLRNRSIAHPEEISSNSQVRSRSPKKRPEPVPIQKGNNNGRTTDLKQQSTRESWVSPRKRGLSSSEKDNIERQAIENCERRQTEPVSPVLKRIKRCLRSEAPNSSEEDSPIKSDKESVEQRSTVVDNDADFQGTKRACRCLILDDCEKREIKKVNVSEEGPLNSAVVEEITGYLAVNGVDDSDSAVINCDDCQPDGNTKQNSIGSYVLQEKSVAENGDTDTQTSMFLDSRKEDSYIDHKVPCTDSQVQVKLEDHKIVTACLPVEHVNQLTTEPATGPFSETQSSLRDSEEEVDVVGDSSASKEQCKENTNNELDTSLESMPASGEPEPSPVLDCVSAQMMSLSEPQEHRYTLRTSPRRAAPTRGSPTKNSSPYRENGQFEENNLSPNETNATVSDNVSQSPTNPGEISQNEKGICCDSQNNGSEGVSKPPSEARLNIGHLPSAKESASQHITEEEDDDPDVYYFESDHVALKHNKDYQRLLQTIAVLEAQRSQAVQDLESLGRHQREALKNPIGFVEKLQKKADIGLPYPQRVVQLPEIVWDQYTHSLGNFEREFKNRKRHTRRVKLVFDKVGLPARPKSPLDPKKDGESLSYSMLPLSDGPEGSSSRPQMIRGRLCDDTKPETFNQLWTVEEQKKLEQLLIKYPPEEVESRRWQKIADELGNRTAKQVASRVQKYFIKLTKAGIPVPGRTPNLYIYSKKSSTSRRQHPLNKHLFKPSTFMTSHEPPVYMDEDDDRSCFHSHMNTAVEDASDDESIPIMYRNLPEYKELLQFKKLKKQKLQQMQAESGFVQHVGFKCDNCGIEPIQGVRWHCQDCPPEMSLDFCDSCSDCLHETDIHKEDHQLEPIYRSETFLDRDYCVSQGTSYNYLDPNYFPANR
B5 was tested, and the binding (KLF3 (human)) was “binds”.

Like-named read-outs stand apart in the source and are kept apart here. Results are given in words; binding and its absence hold for the method and conditions named. In cells and extracts the contact can be indirect. Here binding means that the protein was enriched with, or labelled near, the bait; the list need not be complete. For part of these data: A no says only that the protein was not detected with the bait.
